Reference: PubChem BioAssay AID1259327 (Drosophila RNAi Screening Center, 2017)

Aim: 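Knock-downs altering cellular ATP with no metal added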
Cell system: Drosophila S2R+ cells
Reagent: long dsRNA against Drosophila genes
Duration: 5 days (water added on day 4, read one day later)
Challenge: water added as vehicle, no metal, one day before read-out
Measurement: 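Total ATP measured by luciferase light, scaled to plate mean, duplicates averaged, then z-scored across plates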
Reading the numbers: ATP z-score: higher = more total ATP than typical wells; ATP luminescence: higher = more total ATP
Hit rule: 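Called active when the ATP z-score exceeds 1.5 or falls below -1.5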
Calls: active = hit: ATP up or down; inactive = no clear ATP change
In all, the deposit lists about 3,100 reagents; this is an unselected part. In the full data, 378 (12%) were called active. 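Hits include both directions; z-score sign shows ATP rise or fall; raw luminescence values are not plate-normalised.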 Not stated in the record: the amount of reagent.

Target gene | amplicon | ATP z-score, duplicate mean | ATP luminescence, replicate 1 (RLU) | ATP luminescence, replicate 2 (RLU) | Outcome
jagn | DRSC12152 | -0.109 | 7.28e5 | 7.11e5 | inactive
jagn | DRSC39810 | -0.579 | 3.94e5 | 4.86e5 | inactive
Kua | DRSC02100 | 0.144 | 7.56e5 | 7.27e5 | inactive
Tsp66E | DRSC09683 | -0.116 | 9.00e5 | 8.62e5 | inactive
MFS15 | DRSC06523 | 0.782 | 8.00e5 | 5.80e5 | inactive
MFS15 | DRSC28274 | 0.749 | 9.75e5 | 8.56e5 | inactive
CG11162 | DRSC22538 | 0.178 | 5.52e5 | 6.38e5 | inactive
CG11162 | DRSC39680 | -1.04 | 4.14e5 | 3.73e5 | inactive
Gp210 | DRSC04861 | -0.955 | 5.71e5 | 4.95e5 | inactive
Gp210 | DRSC39541 | 0.985 | 4.46e5 | 5.86e5 | inactive
CG7384 | DRSC03053 | -0.624 | 4.53e5 | 4.16e5 | inactive
Irk1 | DRSC16106 | 0.262 | 3.17e5 | 7.75e5 | inactive
CG6126 | DRSC15971 | -0.0316 | 7.28e5 | 6.78e5 | inactive
CG6126 | DRSC39462 | -1.23 | 4.06e5 | 3.40e5 | inactive
Gr10b | DRSC19477 | 2.51 | 8.53e5 | 8.09e5 | active
Gr10b | DRSC28702 | 0.534 | 9.39e5 | 8.39e5 | inactive
Tmep | DRSC08215 | -0.367 | 6.55e5 | 7.30e5 | inactive
Tmep | DRSC26652 | 1.1 | 1.24e6 | 1.43e6 | inactive
Scgbeta | DRSC15854 | 0.124 | 3.17e5 | 7.45e5 | inactive
Gr98c | DRSC26546 | -0.638 | 9.34e5 | 9.89e5 | inactive
Gr98c | DRSC39650 | 1.75 | 5.65e5 | 6.05e5 | active
put | DRSC17039 | 0.814 | 8.14e5 | 7.66e5 | inactive
put | DRSC36611 | 0.963 | 6.44e5 | 6.79e5 | inactive
put | DRSC36612 | 0.011 | 5.00e5 | 6.62e5 | inactive

Laid out differently: 7 of the entries above
Target gene	amplicon	ATP z-score, duplicate mean	ATP luminescence, replicate 1 (RLU)	ATP luminescence, replicate 2 (RLU)	Outcome
Tmep	DRSC26652	1.1	1.24e6	1.43e6	inactive
Scgbeta	DRSC15854	0.124	3.17e5	7.45e5	inactive
Gr98c	DRSC26546	-0.638	9.34e5	9.89e5	inactive
Gr98c	DRSC39650	1.75	5.65e5	6.05e5	active
put	DRSC17039	0.814	8.14e5	7.66e5	inactive
put	DRSC36611	0.963	6.44e5	6.79e5	inactive
put	DRSC36612	0.011	5.00e5	6.62e5	inactive

The listing continues:
Target gene | amplicon | ATP z-score, duplicate mean | ATP luminescence, replicate 1 (RLU) | ATP luminescence, replicate 2 (RLU) | Outcome
sut4 | DRSC07703 | 0.691 | 7.16e5 | 8.96e5 | inactive
sut4 | DRSC24885 | 0.707 | 8.78e5 | 9.99e5 | inactive
cni | DRSC03512 | 0.487 | 7.85e5 | 7.71e5 | inactive
CG7882 | DRSC04899 | 0.0892 | 6.24e5 | 6.31e5 | inactive
CG5021 | DRSC10469 | 2.02 | 1.11e6 | 1.21e6 | active
CG5021 | DRSC39741 | 0.645 | 4.74e5 | 5.46e5 | inactive
nrv2 | DRSC00948 | -0.503 | 6.62e5 | 7.15e5 | inactive
nrv2 | DRSC03383 | -0.169 | 4.44e5 | 4.92e5 | inactive
CG8249 | DRSC07125 | 0.829 | 6.64e5 | 7.25e5 | inactive
CG8249 | DRSC39776 | -0.892 | 3.89e5 | 4.46e5 | inactive
sdk | DRSC18831 | 0.812 | 7.99e5 | 7.80e5 | inactive
sdk | DRSC39522 | -0.216 | 4.90e5 | 3.90e5 | inactive
CG1161 | DRSC24956 | -0.57 | 7.71e5 | 7.88e5 | inactive
oys | DRSC05203 | -1.77 | 5.21e5 | 5.80e5 | active
oys | DRSC06751 | -1.13 | 6.08e5 | 6.12e5 | inactive
oys | DRSC26939 | -0.17 | 8.02e5 | 9.62e5 | inactive
PGRP-SC2 | DRSC06481 | -0.184 | 6.96e5 | 7.50e5 | inactive
PGRP-SC2 | DRSC25449 | -1.06 | 6.95e5 | 7.43e5 | inactive
SPR | DRSC17886 | 1.86 | 5.84e5 | 7.10e5 | active
SPR | DRSC21557 | 0.436 | 5.47e5 | 6.87e5 | inactive
CG2901 | DRSC18239 | -0.584 | 7.63e5 | 7.26e5 | inactive
CG2901 | DRSC39506 | 0.775 | 4.98e5 | 5.10e5 | inactive
